Source: PubChem BioAssay AID2685 (National Center for Advancing Translational Sciences (NCATS), 2010)
The other results are listed elsewhere or left out. These are further read-outs of the screen, such as a control signal, another cell line or another target. No call is given for them. Compounds called inactive in the main read-out are mostly missing here. Potencies come from curve fits of mixed quality, noted in brackets.

Assay: qHTS Assay for Lipid Storage Modulators in Drosophila S3 Cells;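 as to cell number change: cells counted by Cell Tracker Red CMTPX staining in the red channel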
Conditions: BODIPY lipid droplet fluorescence, 18-24 h; for cell number change: measured here: cell count max response, cells fed with added oleic acid
Outline: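 Drosophila S3 cells loaded with oleic acid (400 uM, as added) and compounds at several concentrations; lipid droplets imaged by 488-nm laser-scanning cytometry, 500–530 nm intensity and object ratio to cell channel. Percent activity normalized to 20 uM Triacsin C.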

[1] = measured here: cell number channel AC50, cells fed with added oleic acid
[2] = measured here: lipid fluorescence (Fed channel) AC50, cells fed with added oleic acid

Row | Structure (SMILES) | cell number change [%] | AC50 [1] | AC50 [2]
1 | CCCOC(=O)c1ccc(Oc2c(-c3ccc(O)cc3O)n[nH]c2C)cc1 | -34.2 | 29.1 µM [falling, single point] | 29.1 µM [falling, single point]
2 | O=C1C2CCCN2C(c2cccc(Br)c2)N1c1ccc(F)cc1 (centres undefined) | -16.4 | – | –
3 | COC1CCCCC1NS(=O)(=O)c1ccccc1 (centres undefined) | -106 | 29.1 µM [falling, partial curve] | 29.1 µM [falling, partial curve]
4 | COC(=O)CSc1nc(N2CCOCC2)c2c(c1C#N)CCCC2 | 17 | – | 5.17 µM [rising, single point]
5 | CCc1cc(/C(Cc2csc(C)n2)=N/O)c(O)cc1O | -19.2 | – | –
6 | COC(=O)/C(=C/c1ccccc1)NC(=O)c1ccco1 | 16.8 | – | 1.3 µM [falling, full curve, poor fit]
7 | CSCC(C)N1CCC(Oc2cccc(C(=O)NCc3ccccn3)c2)CC1 (centres undefined) | – | 2.31 µM [falling, single point] | –
8 | O=C(COC(=O)c1cccc(F)c1)NC(=O)NC1CCCC1 | -34.3 | 18.4 µM [falling, partial curve] | –
9 | COc1ccc(-n2c(C)cc(-c3csc(NC(=O)c4ccc(S(=O)(=O)N(C)C)cc4)n3)c2C)cc1 | -60.9 | 1.3 µM [falling, full curve] | –
10 | O=C(O)CNC(=O)CCn1nnc2ccccc2c1=O | -36.2 | – | –
11 | COc1ccc2nnc(-c3ccc(C(F)(F)F)cc3)n2n1 | 16 | – | 0.164 µM [rising, full curve]
12 | CN(Cc1ccccc1)C(=O)c1[nH]cnc1C(=O)Nc1cccc(Cl)c1 | -57.2 | 7.31 µM [falling, single point] | 1.16 µM [rising, partial curve]
13 | O=C(COc1ccccc1)NCCc1cn2ccsc2n1 | 15.9 | – | 2.59 µM [rising, partial curve]
14 | COCC1CCN(C(=O)c2cc(COc3ccc4ncccc4c3)on2)CC1 | -55.1 | 11.6 µM [falling, partial curve] | 11.6 µM [falling, partial curve]
15 | O=C(CCSc1ccc(Cl)cc1)NC12CC3CC(CC(C3)C1)C2 | -27 | – | 18.4 µM [falling, partial curve]
16 | Cc1nc(NCCc2ccc(O)cc2)c2nnn(Cc3ccccc3)c2n1 | 9.12 | 0.184 µM [rising, full curve, poor fit] | 29.1 µM [falling, single point]
17 | Cc1noc(NS(=O)(=O)c2ccc(NC(=O)C(C)C)cc2)c1C | -15.9 | – | 0.0517 µM [falling, full curve, poor fit]
18 | O=C(OCc1nc2ccccc2s1)C1CCN(S(=O)(=O)c2cccs2)CC1 | -8.55 | – | –
19 | O=C(NCC(c1ccco1)N1CCCC1)c1ccc(Cl)cc1 (centres undefined) | -66.5 | 1.84 µM [falling, full curve] | 18.4 µM [falling, partial curve]
20 | CCOC(=O)C1CCCN(C(=O)C2c3ccccc3Oc3ccccc32)C1 (centres undefined) | 39.9 | 9.2 µM [rising, partial curve] | 9.2 µM [rising, partial curve]
21 | CCOc1ccc(CCNC(=O)Cn2c(-c3nonc3N)nc3ccccc32)cc1OCC | -39.8 | 20.6 µM [falling, partial curve] | 29.1 µM [falling, single point]
22 | CN1CCN(C(=O)/C(=C\c2cccs2)NC(=O)c2ccco2)CC1 | -65 | 29.1 µM [falling, single point] | –
23 | Cc1cccc(C(C(=O)NC2CCCCC2)N(C(=O)c2csnn2)C2CC2)c1 (centres undefined) | 10.7 | – | 0.58 µM [rising, single point]
24 | CC(C)c1ccc(S(=O)(=O)/N=C2/C=C(Sc3ncn[nH]3)C(=O)c3ccccc32)cc1 | -10.3 | 0.651 µM [falling, partial curve, poor fit] | 4.61 µM [falling, partial curve, poor fit]
25 | Cc1ccc(C)c(Nc2c([N+](=O)[O-])ccc3nonc23)c1 | -18.1 | – | 10.3 µM [rising, partial curve]
26 | Cn1c(SCC(=O)N2CCc3ccccc3C2)nnc1-c1cccs1 | 1.47 | – | 29.1 µM [falling, single point]
27 | COc1cccc(C2=CC(=O)CC(C)(C)C2)c1 | -20.3 | 1.46 µM [falling, partial curve] | 1.64 µM [falling, partial curve]

Two entries picked at random from the list so far, as already listed:
Row | Structure (SMILES) | cell number change [%] | AC50 [1] | AC50 [2]
19 | O=C(NCC(c1ccco1)N1CCCC1)c1ccc(Cl)cc1 (centres undefined) | -66.5 | 1.84 µM [falling, full curve] | 18.4 µM [falling, partial curve]
26 | Cn1c(SCC(=O)N2CCc3ccccc3C2)nnc1-c1cccs1 | 1.47 | – | 29.1 µM [falling, single point]
